Test results reported in publication PMC4154131, “Molecular pathogenesis of Spondylocheirodysplastic Ehlers-Danlos syndrome caused by mutant ZIP13 proteins” (EMBO Molecular Medicine, 2014).
These are yes or no findings as the source states them, for the method shown. Binding seen in cells or lysates may run through a third protein. These calls come from enrichment with a bait or labelling near it, and not all partners need be listed. Where a sequence is shown, tags or fusion partners need not be part of it.

Molecular target: T1, N-terminally 3xFLAG-tagged wild-type ZIP13 (human) (UniProt Q96H72)
T1 sequence: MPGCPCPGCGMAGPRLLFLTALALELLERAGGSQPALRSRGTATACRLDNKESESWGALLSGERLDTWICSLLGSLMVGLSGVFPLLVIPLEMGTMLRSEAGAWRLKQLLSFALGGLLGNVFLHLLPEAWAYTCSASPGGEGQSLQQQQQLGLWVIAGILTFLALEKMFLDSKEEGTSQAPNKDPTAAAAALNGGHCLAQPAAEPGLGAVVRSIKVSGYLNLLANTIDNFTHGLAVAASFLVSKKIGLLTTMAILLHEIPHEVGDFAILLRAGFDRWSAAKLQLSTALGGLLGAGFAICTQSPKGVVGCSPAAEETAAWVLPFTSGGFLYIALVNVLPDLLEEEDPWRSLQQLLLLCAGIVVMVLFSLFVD
Assay: affinity purification with mass spectrometry; lysates of 293T cells transfected with FLAG-tagged ZIP13, immunoprecipitated with anti-FLAG antibody; SDS-PAGE, silver staining, unique bands cut out and analysed by TOF/MASS

**Q.** Which binding does the source give for “valosin-containing protein (VCP) (from UniProt P55072 1-806)” here?
**A.** binds
